These are yes or no findings as the source states them, for the method shown. Binding seen in cells or lysates may run through a third protein. These calls come from enrichment with a bait or labelling near it, and not all partners need be listed.
Target: T1, LLGL Scribble cell polarity complex component 2 (LLGL2) (UniProt Q6P1M3)
T1 sequence: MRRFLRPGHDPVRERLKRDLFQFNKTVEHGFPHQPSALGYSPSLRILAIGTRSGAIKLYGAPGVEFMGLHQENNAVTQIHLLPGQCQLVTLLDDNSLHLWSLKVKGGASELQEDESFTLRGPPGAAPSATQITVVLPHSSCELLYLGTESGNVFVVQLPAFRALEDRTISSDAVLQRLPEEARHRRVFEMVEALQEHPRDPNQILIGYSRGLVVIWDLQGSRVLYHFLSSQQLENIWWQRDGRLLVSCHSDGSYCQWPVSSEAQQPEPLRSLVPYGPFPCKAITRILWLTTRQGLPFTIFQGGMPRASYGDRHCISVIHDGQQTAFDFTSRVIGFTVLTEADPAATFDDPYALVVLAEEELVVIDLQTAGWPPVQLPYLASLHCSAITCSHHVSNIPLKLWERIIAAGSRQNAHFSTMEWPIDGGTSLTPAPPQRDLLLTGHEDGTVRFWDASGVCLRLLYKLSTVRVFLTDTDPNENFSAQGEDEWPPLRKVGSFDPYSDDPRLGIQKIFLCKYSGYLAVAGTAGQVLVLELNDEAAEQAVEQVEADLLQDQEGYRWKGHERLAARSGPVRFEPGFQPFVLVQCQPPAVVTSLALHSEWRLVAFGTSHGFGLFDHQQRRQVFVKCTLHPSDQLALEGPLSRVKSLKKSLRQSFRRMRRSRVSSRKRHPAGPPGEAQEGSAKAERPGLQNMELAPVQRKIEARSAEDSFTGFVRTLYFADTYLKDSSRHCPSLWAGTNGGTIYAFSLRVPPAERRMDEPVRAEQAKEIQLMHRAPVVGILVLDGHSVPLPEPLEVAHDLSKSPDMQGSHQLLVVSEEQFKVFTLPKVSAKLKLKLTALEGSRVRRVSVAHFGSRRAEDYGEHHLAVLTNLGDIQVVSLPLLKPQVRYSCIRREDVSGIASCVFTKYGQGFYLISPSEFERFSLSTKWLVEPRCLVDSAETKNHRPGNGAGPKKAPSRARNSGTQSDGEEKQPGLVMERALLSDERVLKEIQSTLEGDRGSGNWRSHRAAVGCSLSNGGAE
Experiment: affinity purification with mass spectrometry; co-IP with monoclonal anti-LLGL2 antibody from lysate of LLGL2-overexpressing ES-2 cells (weak lysis buffer, overnight at 4 °C, protein A/G magnetic beads, PBST washes); whole gel strip (>10 kDa) analysed by LC-MS

By UniProt entry, the sequences of proteins in these tests, tags left out.
UniProt P12814: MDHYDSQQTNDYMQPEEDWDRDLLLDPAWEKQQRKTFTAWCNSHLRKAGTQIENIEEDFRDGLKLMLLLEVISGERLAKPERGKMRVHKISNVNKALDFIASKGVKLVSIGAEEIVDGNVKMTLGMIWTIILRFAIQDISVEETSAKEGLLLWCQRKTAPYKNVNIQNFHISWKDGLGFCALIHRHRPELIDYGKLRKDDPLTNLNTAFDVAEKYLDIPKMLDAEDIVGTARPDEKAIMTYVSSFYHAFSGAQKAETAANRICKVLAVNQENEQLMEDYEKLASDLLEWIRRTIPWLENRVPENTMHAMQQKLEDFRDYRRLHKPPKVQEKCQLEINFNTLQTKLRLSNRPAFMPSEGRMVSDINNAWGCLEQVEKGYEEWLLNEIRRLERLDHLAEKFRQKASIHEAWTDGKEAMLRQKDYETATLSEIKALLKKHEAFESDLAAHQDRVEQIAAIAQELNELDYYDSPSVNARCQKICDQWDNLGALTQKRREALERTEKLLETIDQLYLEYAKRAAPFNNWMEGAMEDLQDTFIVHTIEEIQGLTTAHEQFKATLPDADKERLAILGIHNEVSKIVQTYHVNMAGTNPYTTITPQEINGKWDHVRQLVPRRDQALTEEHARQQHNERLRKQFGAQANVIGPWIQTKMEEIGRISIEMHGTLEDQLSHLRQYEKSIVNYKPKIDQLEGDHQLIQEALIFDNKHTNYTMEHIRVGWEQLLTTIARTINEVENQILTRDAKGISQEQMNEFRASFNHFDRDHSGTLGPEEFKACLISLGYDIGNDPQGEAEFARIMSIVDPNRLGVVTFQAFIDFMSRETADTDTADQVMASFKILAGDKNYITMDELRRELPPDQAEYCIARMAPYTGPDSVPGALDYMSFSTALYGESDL

binding: binds
Substance: α-actinin-1 (ACTN1) (from UniProt P12814 1-892)

Reference: PMC10742334
